{
  "source": "the supplement of paper PMC8728848",
  "test_in_all_cases": "glycan array binding signal (z-score within array); higher = stronger binding",
  "settings_in_all_cases": "glycan notation: IUPAC condensed, linker removed",
  "key": {"Glc(b1-6)Glc": {"target": "Glc(b1-6)Glc", "method_in_brief": "(§1)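 The Consortium for Functional Glycomics database supplied 3228 glycan arrays, of which those lacking an available protein sequence were dropped. The binding signal, a within-array Z-score, was averaged across arrays of the same protein sequence and across linkers. Negative scores can be read as non-binding.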"}, "GlcA(b1-3)Gal": {"target": "GlcA(b1-3)Gal", "method_in_brief": "as §1"}, "GlcA(b1-3)GlcNAc": {"target": "GlcA(b1-3)GlcNAc", "method_in_brief": "as §1"}, "GlcA(b1-6)Gal": {"target": "GlcA(b1-6)Gal", "method_in_brief": "as §1"}, "[1]": {"target": "GlcA3S(b1-3)Gal(b1-4)GlcNAc(b1-2)Man", "method_in_brief": "as §1"}, "[2]": {"target": "GlcA3S(b1-3)Gal(b1-4)GlcNAc(b1-3)Gal(b1-4)Glc", "method_in_brief": "as §1"}, "[3]": {"target": "GlcNAc(a1-3)Gal(b1-4)GlcNAc", "method_in_brief": "as §1"}, "[4]": {"target": "GlcNAc(a1-4)Gal(b1-3)GlcNAc", "method_in_brief": "as §1"}, "[5]": {"target": "GlcNAc(a1-4)Gal(b1-4)GalNAc", "method_in_brief": "as §1"}, "[6]": {"target": "GlcNAc(a1-4)Gal(b1-4)GlcNAc", "method_in_brief": "as §1"}, "[7]": {"target": "GlcNAc(a1-4)Gal(b1-4)GlcNAc(b1-3)Gal(b1-4)Glc", "method_in_brief": "as §1"}, "[8]": {"target": "GlcNAc(a1-4)Gal(b1-4)GlcNAc(b1-3)Gal(b1-4)GlcNAc", "method_in_brief": "as §1"}, "[9]": {"target": "GlcNAc(a1-4)Gal(b1-4)GlcNAc(b1-3)Gal(b1-4)GlcNAc(b1-3)Gal(b1-4)GlcNAc", "method_in_brief": "as §1"}, "[10]": {"target": "GlcNAc(a1-4)Gal(b1-4)GlcNAc(b1-3)Gal(b1-4)[Fuc(a1-3)]GlcNAc(b1-3)Gal(b1-4)[Fuc(a1-3)]GlcNAc", "method_in_brief": "as §1"}, "[11]": {"target": "GlcNAc(a1-6)Gal(b1-4)GlcNAc", "method_in_brief": "as §1"}, "[12]": {"target": "GlcNAc(b1-2)Gal(b1-3)GalNAc", "method_in_brief": "as §1"}, "[13]": {"target": "GlcNAc(b1-2)Man(a1-3)[GlcNAc(b1-2)Man(a1-6)]Man(b1-4)GlcNAc(b1-4)GlcNAc", "method_in_brief": "as §1"}, "[14]": {"target": "GlcNAc(b1-2)Man(a1-3)[GlcNAc(b1-2)Man(a1-6)]Man(b1-4)GlcNAc(b1-4)[Fuc(a1-6)]GlcNAc", "method_in_brief": "as §1"}, "[15]": {"target": "GlcNAc(b1-2)Man(a1-3)[GlcNAc(b1-4)][GlcNAc(b1-2)Man(a1-6)]Man(b1-4)GlcNAc(b1-4)GlcNAc", "method_in_brief": "as §1"}, "[16]": {"target": "GlcNAc(b1-2)Man(a1-3)[GlcNAc(b1-4)][GlcNAc(b1-2)Man(a1-6)]Man(b1-4)GlcNAc(b1-4)[Fuc(a1-6)]GlcNAc", "method_in_brief": "as §1"}, "[17]": {"target": "GlcNAc(b1-2)[GlcNAc(b1-4)]Man(a1-3)[GlcNAc(b1-2)Man(a1-6)]Man(b1-4)GlcNAc(b1-4)GlcNAc", "method_in_brief": "as §1"}, "[18]": {"target": "GlcNAc(b1-2)[GlcNAc(b1-4)]Man(a1-3)[GlcNAc(b1-4)][GlcNAc(b1-2)Man(a1-6)]Man(b1-4)GlcNAc(b1-4)GlcNAc", "method_in_brief": "as §1"}, "[19]": {"target": "GlcNAc(b1-2)[GlcNAc(b1-4)]Man(a1-3)[GlcNAc(b1-4)][GlcNAc(b1-2)[GlcNAc(b1-6)]Man(a1-6)]Man(b1-4)GlcNAc(b1-4)GlcNAc", "method_in_brief": "as §1"}, "[20]": {"target": "GlcNAc(b1-2)[GlcNAc(b1-4)]Man(a1-3)[GlcNAc(b1-4)][GlcNAc(b1-2)[GlcNAc(b1-6)]Man(a1-6)]Man(b1-4)GlcNAc(b1-4)[Fuc(a1-6)]GlcNAc", "method_in_brief": "as §1"}, "[21]": {"target": "GlcNAc(b1-2)[GlcNAc(b1-6)]Man(a1-6)[GlcNAc(b1-2)Man(a1-3)]Man(b1-4)GlcNAc(b1-4)GlcNAc", "method_in_brief": "as §1"}, "[22]": {"target": "GlcNAc(b1-2)[GlcNAc(b1-6)]Man(a1-6)[GlcNAc(b1-2)Man(a1-3)]Man(b1-4)GlcNAc(b1-4)[Fuc(a1-6)]GlcNAc", "method_in_brief": "as §1"}, "[23]": {"target": "GlcNAc(b1-2)[GlcNAc(b1-6)]Man(a1-6)[GlcNAc(b1-4)][GlcNAc(b1-2)Man(a1-3)]Man(b1-4)GlcNAc(b1-4)GlcNAc", "method_in_brief": "as §1"}, "GlcNAc(b1-3)Fuc": {"target": "GlcNAc(b1-3)Fuc", "method_in_brief": "as §1"}, "GlcNAc(b1-3)Gal": {"target": "GlcNAc(b1-3)Gal", "method_in_brief": "as §1"}, "[24]": {"target": "GlcNAc(b1-3)Gal(b1-3)GalNAc", "method_in_brief": "as §1"}, "GlcNAc(b1-3)Gal(b1-4)Glc": {"target": "GlcNAc(b1-3)Gal(b1-4)Glc", "method_in_brief": "as §1"}, "[25]": {"target": "GlcNAc(b1-3)Gal(b1-4)GlcNAc", "method_in_brief": "as §1"}, "[26]": {"target": "GlcNAc(b1-3)Gal(b1-4)GlcNAc(b1-2)Man(a1-3)[GlcNAc(b1-3)Gal(b1-4)GlcNAc(b1-2)Man(a1-6)]Man(b1-4)GlcNAc(b1-4)GlcNAc", "method_in_brief": "as §1"}, "[27]": {"target": "GlcNAc(b1-3)Gal(b1-4)GlcNAc(b1-2)Man(a1-3)[GlcNAc(b1-3)Gal(b1-4)GlcNAc(b1-2)Man(a1-6)]Man(b1-4)GlcNAc(b1-4)[Fuc(a1-6)]GlcNAc", "method_in_brief": "as §1"}, "[28]": {"target": "GlcNAc(b1-3)Gal(b1-4)GlcNAc(b1-2)[GlcNAc(b1-3)Gal(b1-4)GlcNAc(b1-6)]Man(a1-6)[GlcNAc(b1-3)Gal(b1-4)GlcNAc(b1-2)Man(a1-3)]Man(b1-4)GlcNAc(b1-4)GlcNAc", "method_in_brief": "as §1"}, "[29]": {"target": "GlcNAc(b1-3)Gal(b1-4)GlcNAc(b1-3)Gal(b1-4)GlcNAc", "method_in_brief": "as §1"}, "[30]": {"target": "GlcNAc(b1-3)Gal(b1-4)GlcNAc(b1-3)Gal(b1-4)GlcNAc(b1-2)Man(a1-3)[GlcNAc(b1-3)Gal(b1-4)GlcNAc(b1-3)Gal(b1-4)GlcNAc(b1-2)Man(a1-6)]Man(b1-4)GlcNAc(b1-4)GlcNAc", "method_in_brief": "as §1"}},
  "note": "The list shows a part of the results.",
  "data": [
    {"binder": "PX9961W-pdi-543-27-543 (Parabacteroides distasonis) (protein) EGNATTTSYFLNDQQAIDAIDGLYERFHQEGCYGRELFWEQGAACDIVWGRTRGYNSLATLAYTGDESPLRDVFSRMYSTMSRANWIIQELVKKEKGTTLTAVEKRSLGEAYFSRGWAHYLIAYRYGTDKQGVPFVRYEDFPDDYDNSIPPQQATVMDNYKLIIEDMDKAIAYLPIFESYDADNRGRAHQAAAVAFKAKTYAYWATWDATQWNNVIEMVNQLENNYNRDLAPTFAELFSSDLKDYWNAEYLWTIPSIGGALPGGTEFPGIILENKGWGKYNGWGQMKPSYDIYEEMAKDGKGNDRLVRSILEYNQEFPFFGETRKFWSTSDLEAGFMINKYMDAFKYSDPVGEGAVSANGDWPTVRVNFPIIRFAEMLLFRAEAYLMTGQADKATADINRIRLRSNLTPLTGTATMKDLYHERRCELAFEFTDHLFDLKRWNRSSNADIKTLADKELNAHPRIRRYEDRANPESAFTIIGYEDYTNKNAYQAHMMVFPYPSEEITKSNGQLKQNEGY", "values": [
      {"measurement": "glycan array binding signal (z-score)", "setting": "Glc(b1-6)Glc", "value": 0.658},
      {"measurement": "glycan array binding signal (z-score)", "setting": "GlcA(b1-3)Gal", "value": 0.097},
      {"measurement": "glycan array binding signal (z-score)", "setting": "GlcA(b1-3)GlcNAc", "value": 0.817},
      {"measurement": "glycan array binding signal (z-score)", "setting": "GlcA(b1-6)Gal", "value": -0.459},
      {"measurement": "glycan array binding signal (z-score)", "setting": "[1]", "value": 0.015},
      {"measurement": "glycan array binding signal (z-score)", "setting": "[2]", "value": -0.46},
      {"measurement": "glycan array binding signal (z-score)", "setting": "[3]", "value": 0.048},
      {"measurement": "glycan array binding signal (z-score)", "setting": "[4]", "value": 0.356},
      {"measurement": "glycan array binding signal (z-score)", "setting": "[5]", "value": 0.061},
      {"measurement": "glycan array binding signal (z-score)", "setting": "[6]", "value": -0.83},
      {"measurement": "glycan array binding signal (z-score)", "setting": "[7]", "value": -0.346},
      {"measurement": "glycan array binding signal (z-score)", "setting": "[8]", "value": 0.041},
      {"measurement": "glycan array binding signal (z-score)", "setting": "[9]", "value": 0.279},
      {"measurement": "glycan array binding signal (z-score)", "setting": "[10]", "value": -0.11},
      {"measurement": "glycan array binding signal (z-score)", "setting": "[11]", "value": 0.398},
      {"measurement": "glycan array binding signal (z-score)", "setting": "[12]", "value": -0.369},
      {"measurement": "glycan array binding signal (z-score)", "setting": "[13]", "value": -0.878},
      {"measurement": "glycan array binding signal (z-score)", "setting": "[14]", "value": 0.087},
      {"measurement": "glycan array binding signal (z-score)", "setting": "[15]", "value": -0.603},
      {"measurement": "glycan array binding signal (z-score)", "setting": "[16]", "value": -0.234},
      {"measurement": "glycan array binding signal (z-score)", "setting": "[17]", "value": -0.57},
      {"measurement": "glycan array binding signal (z-score)", "setting": "[18]", "value": -0.099},
      {"measurement": "glycan array binding signal (z-score)", "setting": "[19]", "value": -0.623},
      {"measurement": "glycan array binding signal (z-score)", "setting": "[20]", "value": -1.03},
      {"measurement": "glycan array binding signal (z-score)", "setting": "[21]", "value": -0.815},
      {"measurement": "glycan array binding signal (z-score)", "setting": "[22]", "value": -0.434},
      {"measurement": "glycan array binding signal (z-score)", "setting": "[23]", "value": -1.41},
      {"measurement": "glycan array binding signal (z-score)", "setting": "GlcNAc(b1-3)Fuc", "value": 1.1},
      {"measurement": "glycan array binding signal (z-score)", "setting": "GlcNAc(b1-3)Gal", "value": -0.503},
      {"measurement": "glycan array binding signal (z-score)", "setting": "[24]", "value": 0.459},
      {"measurement": "glycan array binding signal (z-score)", "setting": "GlcNAc(b1-3)Gal(b1-4)Glc", "value": -0.018},
      {"measurement": "glycan array binding signal (z-score)", "setting": "[25]", "value": -0.442},
      {"measurement": "glycan array binding signal (z-score)", "setting": "[26]", "value": 0.398},
      {"measurement": "glycan array binding signal (z-score)", "setting": "[27]", "value": 0.81},
      {"measurement": "glycan array binding signal (z-score)", "setting": "[28]", "value": 2.42},
      {"measurement": "glycan array binding signal (z-score)", "setting": "[29]", "value": 1.36},
      {"measurement": "glycan array binding signal (z-score)", "setting": "[30]", "value": 2.38}
    ]}
  ]
}
